Measurements reported in PubChem BioAssay AID1347075 (National Center for Advancing Translational Sciences (NCATS), 2019).
Among all 400,000 compounds or so, about 5,500 (1.4%) were called active. The inconclusive results got no clear call from the source; some entries with a clear call stand among them for comparison. Calls follow the shape of the dose curve; as a rule, active = well fitted cell-killing curve with a large enough effect; inconclusive = small, poorly fitted or top-dose-only effect, or effect the other way; inactive = flat fitted curve, though single readings scatter. A potency beside an inconclusive call is a rough fit, not a confirmed value.
Potency is read from the fitted curve at half-maximal effect.

Experiment: qHTS assay for MDR1-selective chemotherapeutics: Primary screen using the parental adenocarcinoma cell KB-3-1; also: nearly all actives have a fitted effect of over 60% in size
Conditions: KB-3-1 viability, CellTiter-Glo ATP luminescence, 72 h; series mostly up to 46.1 µM
Summary of the method: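 Using CellTiter-Glo luminescence, growth of non-resistant KB-3-1 adenocarcinoma cells is assessed 72 h after pin-tool compound addition at 37 °C. Normalized responses across the concentration series yield fitted curves.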
With `N#Cc1cn(CCOc2ccc(F)cc2)c2ccccc12` the Potency was inconclusive: 32.6 µM [cytotoxic, single point].
For `Cc1cccc(N=C2NC(=O)CS2)c1`, the Potency was “inactive”.
In the case of `N#Cc1c(-c2ccccc2)c(-c2ccccc2)nn(CC(=O)NNC(=O)Nc2ccc(Cl)cc2)c1=O`, the Potency is reported as active: 18.4 µM.
In the case of `Clc1cccc(CSc2nnc(-c3ccccn3)n2Cc2ccco2)c1`, the Potency is reported as inconclusive: 16.4 µM [cytotoxic, single point].
For `COc1ccc(Cn2nnc(C(=O)Nc3ccc4c(c3)OCCO4)c2N)cc1Br`, the Potency was inconclusive: 23.1 µM [cytotoxic, single point].
With `COC(=O)c1ccccc1CC1Cc2cc3c(cc2C1=O)CCC3` (stereo unspecified) the Potency was inconclusive: 29.1 µM [cytotoxic, single point].
For `COc1ccc(C(=O)NNc2ncnc3c2cnn3-c2ccc(C)cc2C)cc1`, the Potency was “inactive”.
In the case of `CCOC(=O)C1=C(CC)Nc2ccccc2N/C1=N\S(=O)(=O)c1cc(Br)ccc1Br`, the Potency is reported as inconclusive: 20.6 µM [cytotoxic, partial curve, poor fit].
For `CCOCCCn1c(=N)c(C(=O)NC(C)c2ccccc2)cc2c(=O)n3cccc(C)c3nc21` (stereo unspecified), the Potency was inconclusive: 20.6 µM [cytotoxic, partial curve].
In the case of `CCC(C)NCC(=O)Nc1ccc(S(N)(=O)=O)cc1` (stereo unspecified), the Potency is reported as “inactive”.
For `CCOC(=O)C1(Cc2cccc(OC)c2)CCN(Cc2cccc(OC)c2O)CC1`, the Potency was inconclusive: 29.1 µM [cytotoxic, single point].
In the case of `Cc1ccc(C(=O)NC2CCN(CC(=O)NC3CCC(C)CC3)CC2)cc1` (stereo unspecified), the Potency is reported as inconclusive: 20.6 µM [rising, single point].
With `COc1ccc(C(=O)NC(Nc2ccccc2)C(Cl)(Cl)Cl)cc1` (stereo unspecified) the Potency was inconclusive: 18.4 µM [cytotoxic, single point].
In the case of `Cc1ccc2occ(CC(=O)Nc3ccc(Cl)c(C(F)(F)F)c3)c2c1`, the Potency is reported as inconclusive: 29.1 µM [cytotoxic, single point].
With `O=c1oc2ccc(Cl)cc2nc1/C=C(\O)c1cccs1` the Potency was inconclusive: 29.1 µM [cytotoxic, single point].
For `CCOC(=O)c1ccc(NC(=O)c2nc[nH]c2C(=O)N[C@@H](Cc2ccccc2)C(=O)OC(C)(C)C)cc1`, the Potency was active: 13 µM.
For `CCCCn1c(N2CCC(Cc3ccccc3)CC2)nc2c1c(=O)[nH]c(=O)n2C`, the Potency was inconclusive: 10.3 µM [cytotoxic, partial curve, poor fit].
For `CCCn1cc(CN2CCC(C(=O)Nc3cccc(-c4cscn4)c3)CC2)c(C)n1`, the Potency was inconclusive: 25.9 µM [cytotoxic, single point].
With `C=C1C(=O)OC2CC1C(O)CC(C)=CCCC(C)=CC(O)CC2C` (stereo unspecified) the Potency was inconclusive: 18.4 µM [cytotoxic, single point].
In the case of `Cc1nc(-c2ccc(S(=O)(=O)N3CCN(Cc4ccccc4)CC3)s2)cs1`, the Potency is reported as inconclusive: 18.4 µM [cytotoxic, single point].
With `O=C(Cn1c(CO)nc2ccccc21)NCc1ccc2c(c1)OCO2` the Potency was “inactive”.
In the case of `O=C(c1ccc(Cl)cc1)N1N=C(c2ccccn2)CC1(O)C(F)(F)F` (stereo unspecified), the Potency is reported as inconclusive: 14.6 µM [cytotoxic, single point].
In the case of `CC(C)N1CCc2c(sc(NC(=O)c3cc4cc([N+](=O)[O-])ccc4s3)c2C(N)=O)C1`, the Potency is reported as inconclusive: 29.1 µM [cytotoxic, single point].
With `Cc1cc(=O)n(C)c(=O)n1CCCNc1ccccc1` the Potency was inconclusive: 13 µM [cytotoxic, single point].
With `Cc1cccc2sc(NNC(=O)c3ccc(S(=O)(=O)N4CCc5ccccc5C4)cc3)nc12` the Potency was active: 5.8 µM.
In the case of `CCOC(=O)Cc1csc(NC(=O)c2ccc(Cl)nc2)n1`, the Potency is reported as “inactive”.
For `Cc1ccc(-n2[nH]c(C)c(C=NC34CN5CN(CN(C5)C3)C4)c2=O)cc1C`, the Potency was inconclusive: 4.61 µM [cytotoxic, partial curve].
With `COc1ccc(-n2nnc3c(=O)n(CC(=O)OCc4ccccc4)cnc32)cc1` the Potency was inconclusive: 29.1 µM [rising, single point].
For `Nc1cc2c(cc1C(=O)c1cccc(Br)c1)OCCO2`, the Potency was inconclusive: 29.1 µM [cytotoxic, single point].
For `N#C/C(=C(/O)CN1CCOCC1)c1nc2ccccc2s1`, the Potency was “inactive”.
For `CC(=O)N1CCN=C1SCc1cccc(Cl)c1`, the Potency was inconclusive: 9.2 µM [cytotoxic, single point].
With `NC(=O)c1ccc(NC(=O)CCc2nc3ccccc3s2)cc1` the Potency was “inactive”.
For `O=C1c2ccccc2NC(c2ccc(-c3ccccc3F)o2)N1O` (stereo unspecified), the Potency was inconclusive: 29.1 µM [cytotoxic, single point].
In the case of `COc1cc(-c2oc3ccc(C)cc3c(=O)c2O)cc(OC)c1OC`, the Potency is reported as inconclusive: 23.1 µM [cytotoxic, single point].
With `NCCCCCNC(=O)/C=N\O` the Potency was “inactive”.
With `CCN(CC)S(=O)(=O)c1cc(NC(=O)c2cc([N+](=O)[O-])ccc2N2CCOCC2)ccc1C` the Potency was inconclusive: 14.6 µM [rising, partial curve, poor fit].
In the case of `CC1=C(CC(=O)c2ccccc2)C(=O)c2ccccc2C1=O`, the Potency is reported as inconclusive: 23.1 µM [cytotoxic, single point].
With `Cc1ccc(S(=O)(=O)N2C[C@]3(O)C[C@@H]4C(=O)N(c5ccccc5)C(=O)[C@@H]4C[C@]3(OC(=O)Nc3cccs3)C2)cc1` the Potency was “inactive”.
In the case of `Cc1cccc(Cc2c(C)nc3nc(SCc4ccccc4F)nn3c2C)c1`, the Potency is reported as “inactive”.
In the case of `CCOC(=O)/C(=N\Nc1ncnc2ccccc12)c1ccc(OC)cc1`, the Potency is reported as “inactive”.
For `CCOC(=O)NC(=O)CSc1nnnn1-c1ccc(Cl)cc1`, the Potency was “inactive”.
With `CCOC(=O)c1c(NC(NC(C)=O)C(Cl)(Cl)Cl)sc2c1CCCC2` (stereo unspecified) the Potency was inconclusive: 29.1 µM [cytotoxic, single point].
In the case of `Cc1ccc(NC(=O)N2CCN(C)c3ncccc32)cc1C`, the Potency is reported as “inactive”.
For `O=[N+]([O-])c1cc(Br)c2c(c1)CCN2`, the Potency was “inactive”.
In the case of `Cc1cnc(NC(=O)CSc2ncn(-c3ccccc3)n2)s1`, the Potency is reported as inconclusive: 25.9 µM [rising, partial curve].
In the case of `COC(=O)[C@@]12CCCCN1[C@H](c1ccc(-c3ccc(F)cc3)c(OC)c1)[C@@H]1C(=O)N(C)C(=O)[C@@H]12`, the Potency is reported as inconclusive: 29.1 µM [cytotoxic, single point].
